Source: paper PMC3174158
Results are given in words; binding and its absence hold for the method and conditions named. For part of these data: Binding seen in cells or lysates may run through a third protein. Some results given as binding are weak or reduced against the parent protein; the word gives no strength. Where a sequence is shown, tags or fusion partners need not be part of it. Values belong to the binder of their own block, whether it stands above or below them.

Tests used:
[1] = target: T1, MBP-II^Glc-CFP (E. coli) (UniProt P69786); assay: FRET or BRET; in vitro FRET competition; crude peak 1 CFP (5.2 mg) and peak 1 YFP (26 mg) fused proteins mixed with 0 to 338.1 mg crude un-labeled peak 1 MBP-II^Glc, solubilized with Triton X100 and purified on amylose
T1 sequence: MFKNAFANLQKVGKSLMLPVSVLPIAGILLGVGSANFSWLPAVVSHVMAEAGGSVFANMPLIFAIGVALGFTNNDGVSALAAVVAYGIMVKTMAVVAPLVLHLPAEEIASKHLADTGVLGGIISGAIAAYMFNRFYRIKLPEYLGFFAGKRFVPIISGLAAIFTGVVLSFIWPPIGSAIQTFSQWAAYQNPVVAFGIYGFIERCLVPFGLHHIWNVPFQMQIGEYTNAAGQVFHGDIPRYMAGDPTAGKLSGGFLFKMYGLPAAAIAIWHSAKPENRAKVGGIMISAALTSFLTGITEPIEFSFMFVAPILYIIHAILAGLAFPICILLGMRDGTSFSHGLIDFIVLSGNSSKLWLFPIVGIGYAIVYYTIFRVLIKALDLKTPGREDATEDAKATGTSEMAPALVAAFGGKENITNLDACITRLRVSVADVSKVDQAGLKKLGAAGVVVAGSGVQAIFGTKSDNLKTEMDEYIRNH

[2] = target: T2, MBP-II^Glc-YFP (E. coli) (UniProt P69786); assay: condition: only peak 1 proteins purified separately and mixed without detergent (CFP/YFP ratios 1/1, 1/6, 1/10, 1/20); FRET or BRET; in vitro FRET in a cuvette, excitation 436 nm, emission 440-700 nm; peak 1 CFP and peak 1 YFP fused proteins purified separately on amylose, then mixed; no detergent; 20 mM Tris-HCl, 200 mM NaCl, 1 mM EDTA, 1 mM DTT, 10 mM maltose; both purified
T2 sequence: T1 sequence

[3] = target: T2, MBP-II^Glc-YFP (E. coli); assay: condition: only crude peak 1 proteins mixed and purified without detergent treatment; FRET or BRET; in vitro FRET; crude peak 1 CFP and peak 1 YFP fused proteins mixed, then purified on amylose; no detergent; elution buffer with 10 mM maltose
[4] = target: T2, MBP-II^Glc-YFP (E. coli); assay: condition: only peak 2 proteins purified separately before mixing, no detergent; FRET or BRET; in vitro FRET; peak 2 CFP and peak 2 YFP fused proteins purified separately on amylose, then mixed; no detergent; both purified
[5] = target: T2, MBP-II^Glc-YFP (E. coli); assay: condition: only peak 1 proteins purified separately, then mixed and Triton X100 treated, not purified again; FRET or BRET; in vitro FRET; peak 1 CFP and peak 1 YFP fused proteins purified separately, mixed, treated with 0.1% Triton X100 and analysed without further purification; both purified
[6] = target: T2, MBP-II^Glc-YFP (E. coli); assay: condition: only with 32.3 or 64 mg crude un-labeled MBP-II^Glc as competitor (5.2 mg CFP and 26 mg YFP fused protein); FRET or BRET; in vitro FRET competition; crude peak 1 CFP (5.2 mg) and peak 1 YFP (26 mg) fused proteins mixed with 0 to 338.1 mg crude un-labeled peak 1 MBP-II^Glc, solubilized with Triton X100 and purified on amylose

binding [1]: binds
B1: un-labeled MBP-II^Glc (protein, UniProt P69786 1-477)
chain: T1 sequence

binding [2]: no binding | binding [3]: no binding | binding [4]: no binding | binding [5]: no binding | binding [6]: no binding
B2: MBP-II^Glc-CFP (protein, UniProt P69786 1-477)
chain: T1 sequence
